Source: PubChem BioAssay AID248 (DTP/NCI, 2004)
The list is a part of this screen's results and no random one: it is rich in T/C values a quarter to a half above the control, in often repeated tests (any T/C) and in doses without a T/C. Further doses and runs are listed elsewhere. T/C gives the treated animals as a percentage of the vehicle group. Some entries give survivors of the animals treated and no T/C: the source holds a T/C of zero for them, seemingly a mark for toxic or unscored doses. Some survivor counts are full or nearly so, which does not show that the dose was tolerated: the source hardly ever lists a survival T/C far under the control, and the zero likely stands for such cases as well. Survivors were counted at the toxicity check, usually on the fifth day, unless a day is given; later deaths do not show. Schedules are NCI's codes, taken here to give the interval after Q, in days (D) or hours (H), and the number of doses after X. Some schedule codes hold Z or #, which are not explained here. Some doses were run more than once; their values stand side by side, smallest first. For survival time, this PubChem deposit counts one and a half times the control or more as active, and values a quarter to a half above the control carry no call in these data; other NCI protocols may use other cut-offs. Some T/C values carry the count of animals alive at the toxicity check (mostly the fifth day); without a count, all were alive then.

Tested on: L1210 leukemia ip in BDF1 mice, survival T/C
Test: NCI In Vivo Anticancer Drug Screen. Data for tumor model L1210 Leukemia (intraperitoneal) in B6D2F1 (BDF1) mice
Conditions: T/C endpoint: mean survival time, higher T/C = longer survival
[1] = dose: 25.0 mg/kg/injection, schedule: Q01DX009 (ip), vehicle: saline
[2] = dose: 50.0 mg/kg/injection, schedule: Q04DX003 (ip), vehicle: saline
[3] = dose: 100.0 mg/kg/injection, schedule: Q04DX003 (ip), vehicle: saline
[4] = dose: 200.0 mg/kg/injection, schedule: Q04DX003 (ip), vehicle: saline
[5] = dose: 400.0 mg/kg/injection, schedule: Q04DX003 (ip), vehicle: saline
[6] = dose: 100.0 mg/kg/injection, schedule: Q01DX009 (ip), vehicle: Klucel (hydroxypropylcellulose) (HPC)
[7] = dose: 100.0 mg/kg/injection, schedule: Q04DX002 (ip), vehicle: Klucel (hydroxypropylcellulose) (HPC)
[8] = dose: 200.0 mg/kg/injection, schedule: Q04DX002 (ip), vehicle: Klucel (hydroxypropylcellulose) (HPC)
[9] = dose: 400.0 mg/kg/injection, schedule: Q04DX002 (ip), vehicle: Klucel (hydroxypropylcellulose) (HPC)
[10] = dose: 400.0 mg/kg/injection, schedule: Q01DX001 (ip), vehicle: saline
[11] = dose: 400.0 mg/kg/injection, schedule: Q01DX009 (ip), vehicle: saline with Tween-80
[12] = dose: 25.0 mg/kg/injection, schedule: Q04DX003 (ip), vehicle: saline

For `C/C=C/C(=O)OCCC[N+](C)(C)C`, the survivor count (dose: 6.25 mg/kg/injection, schedule: Q01DX009 (ip), vehicle: saline) was 0 of 6, the survivor count (dose: 12.5 mg/kg/injection, schedule: Q01DX009 (ip), vehicle: saline) was 0 of 6 and the survivor count [1] was 0 of 6. The survivor count [2] was 2 of 6, the survivor count [3] was 0 of 6 and the survivor count [4] was 0 of 6. For the same compound, the survivor count [5] was 0 of 6.
`CC(=O)Nc1ccc(NC(=O)Nc2cc(C)ccc2C)cc1` was tested, and the survivor count (dose: 100.0 mg/kg/injection, schedule: Q04DX003 (ip), vehicle: saline with Tween-80) was 6 of 6 and the survivor count (dose: 200.0 mg/kg/injection, schedule: Q04DX003 (ip), vehicle: saline with Tween-80) was 6 of 6.
For `CC(=O)CC(C)(C)c1ccccc1`, the survivor count (dose: 400.0 mg/kg/injection, schedule: Q01DX009 (ip), vehicle: saline) was 3 of 6.
In the case of `CN(C)C(=O)Nc1nc2ccccc2s1`, the survivor count (dose: 400.0 mg/kg/injection, schedule: Q04DX003 (ip), vehicle: other) is reported as 1 of 3 and 4 of 6.
For `CCCC(N=Cc1ccccc1O)C(=O)O.CCCC(N=Cc1ccccc1O)C(=O)O.[Fe]` (centres undefined), the survivor count (dose: 100.0 mg/kg/injection, schedule: Q01DX009 (ip), vehicle: saline) was 2 of 6, the survivor count [4] was 2 of 6 and the survivor count [5] was 1 of 6.
With `COC(=O)/C=C/N1C(=O)c2ccccc2C1=O` the survivor count [6] was 6 of 6, the survivor count (dose: 200.0 mg/kg/injection, schedule: Q01DX009 (ip), vehicle: Klucel (hydroxypropylcellulose) (HPC)) was 6 of 6 and the survivor count (dose: 400.0 mg/kg/injection, schedule: Q01DX009 (ip), vehicle: Klucel (hydroxypropylcellulose) (HPC)) was 6 of 6.
In the case of `C[CH2][Pb]([CH2]C)([CH2]C)[S]C(C)=O`, the survivor count (dose: 6.0 mg/kg/injection, schedule: Q01DX009 (ip), vehicle: Klucel (hydroxypropylcellulose) (HPC)) is reported as 5 of 6, the survivor count (dose: 6.25 mg/kg/injection, schedule: Q01DX009 (ip), vehicle: Klucel (hydroxypropylcellulose) (HPC)) is reported as 3 of 3 and the survivor count (dose: 12.5 mg/kg/injection, schedule: Q01DX009 (ip), vehicle: Klucel (hydroxypropylcellulose) (HPC)) is reported as 1 of 3. The survivor count (dose: 25.0 mg/kg/injection, schedule: Q01DX009 (ip), vehicle: Klucel (hydroxypropylcellulose) (HPC)) was 0 of 3, the survivor count (dose: 25.0 mg/kg/injection, schedule: Q04DX002 (ip), vehicle: Klucel (hydroxypropylcellulose) (HPC)) was 1 of 3 and the survivor count (dose: 50.0 mg/kg/injection, schedule: Q04DX002 (ip), vehicle: Klucel (hydroxypropylcellulose) (HPC)) was 0 of 3. The survivor count [7] was 0 of 3, the survivor count [8] was 0 of 3 and the survivor count [9] was 0 of 3.
In the case of `CCC1(C)C(=O)N(C)C(=O)N1Br` (centres undefined), the survivor count [6] is reported as 1 of 6, the survivor count (dose: 200.0 mg/kg/injection, schedule: Q04DX003 (ip), vehicle: Klucel (hydroxypropylcellulose) (HPC)) is reported as 3 of 6 and the survivor count (dose: 400.0 mg/kg/injection, schedule: Q04DX003 (ip), vehicle: Klucel (hydroxypropylcellulose) (HPC)) is reported as 3 of 6.
In the case of `CCOC(=O)C(OC(=O)c1ccccc1)(OC(=O)c1ccccc1)C(=O)OCC`, the survivor count [10] is reported as 6 of 6.
In the case of `CCCCCCCCCCCCCCCCCC[N+]1(Cc2ccccc2)CCOCC1`, the survivor count (dose: 200.0 mg/kg/injection, schedule: Q01DX001 (ip), vehicle: Klucel (hydroxypropylcellulose) (HPC)) is reported as 4 of 6 and the survivor count (dose: 400.0 mg/kg/injection, schedule: Q01DX001 (ip), vehicle: Klucel (hydroxypropylcellulose) (HPC)) is reported as 0 of 6.
In the case of `CC(=O)Oc1ccc(N)cc1OC(C)=O`, the survivor count (dose: 75.0 mg/kg/injection, schedule: Q01DX001 (ip), vehicle: steroid suspending solution) is reported as 5 of 6 and the survivor count (dose: 300.0 mg/kg/injection, schedule: Q01DX001 (ip), vehicle: steroid suspending solution) is reported as 2 of 6.
`COc1ccc2nc3cc(Cl)ccc3c(NCCCCCN3CCCCC3)c2c1` was tested, and the survivor count (dose: 100.0 mg/kg/injection, schedule: Q01DX001 (ip), vehicle: saline) was 2 of 4 and the survivor count [10] was 0 of 4.
For `CCOC(=O)Nc1cc(NC(C)CCCN(CC)CC)nc2nc(-c3ccc(Cl)cc3)cnc12` (centres undefined), the survivor count (dose: 150.0 mg/kg/injection, schedule: Q01DX001 (ip), vehicle: saline) was 4 of 6 and the survivor count (dose: 300.0 mg/kg/injection, schedule: Q01DX001 (ip), vehicle: saline) was 0 of 6.
With `COc1ccc(C2NC(=S)N3C(c4ccc(OC)c(OC)c4)NC(=S)N23)cc1OC` (centres undefined) the survivor count (dose: 400.0 mg/kg/injection, schedule: Q04DX003 (ip), vehicle: gum acacia) was 6 of 6.
In the case of `ClCC[n+]1ccc(-c2cc[n+](CCCl)cc2)cc1`, the survivor count (dose: 1.25 mg/kg/injection, schedule: Q01DX Z (ip), vehicle: saline) is reported as 2 of 6, the survivor count (dose: 2.5 mg/kg/injection, schedule: Q01DX Z (ip), vehicle: saline) is reported as 3 of 6 and the survivor count (dose: 5.0 mg/kg/injection, schedule: Q01DX Z (ip), vehicle: saline) is reported as 6 of 6. The survivor count (dose: 10.0 mg/kg/injection, schedule: Q01DX Z (ip), vehicle: saline) was 3 of 6.
With `CCCN(CCC)C(=O)OCC` the survivor count [11] was 3 of 6.
`O=C(O)c1ccc(I)cc1.[Ni]` was tested, and the T/C [7] was 128 % of control [2 of 3 alive], the survivor count [7] was 0 of 3 and the survivor count [8] was 0 of 3 and 1 of 3. The survivor count [9] was 2 of 3.
With `O=C(CBr)c1ccc(/C=C/c2ccc(Cl)cc2)cc1` the survivor count (dose: 200.0 mg/kg/injection, schedule: Q01DX009 (ip), vehicle: saline with Tween-80) was 2 of 6 and the survivor count [11] was 1 of 6.
For `Cc1ccc(Nc2nc(N)nc(N)c2N)cc1`, the survivor count (dose: 100.0 mg/kg/injection, schedule: Q01DX Z (ip), vehicle: saline) was 0 of 6 and the survivor count (dose: 200.0 mg/kg/injection, schedule: Q01DX Z (ip), vehicle: saline) was 0 of 6.
With `CCOC(=O)/C=C/C(=O)O.[Zn+2]` the survivor count [12] was 3 of 3, the survivor count [2] was 3 of 3 and the survivor count [3] was 1 of 4. For the same compound, the survivor count [4] was 0 of 4 and the survivor count [5] was 0 of 4.
In the case of `NCc1c(Cl)c(Cl)c(Cl)c(CN)c1Cl`, the survivor count (dose: 200.0 mg/kg/injection, schedule: Q01DX001 (ip), vehicle: carboxymethylcellulose (CMC)) is reported as 1 of 4 and the survivor count (dose: 400.0 mg/kg/injection, schedule: Q01DX001 (ip), vehicle: carboxymethylcellulose (CMC)) is reported as 0 of 4.
With `O=C(O)c1ccnc(-c2ccc(Cl)cc2)c1` the survivor count [5] was 2 of 6.
In the case of `Nc1ccc(CCCCc2ccccc2)cc1Cl`, the survivor count (dose: 400.0 mg/kg/injection, schedule: Q04DX003 (ip), vehicle: saline with Tween-80) is reported as 0 of 6.
For `COc1cccc2c1C(=O)c1c(O)c3c(c(O)c1C2=O)C[C@@](O)(/C(C)=N\NC(N)=O)C[C@@H]3OC1CC(N)C(O)C(C)O1` (some centres undefined), the T/C (dose: 8.0 mg/kg/injection, schedule: Q04DX003 (ip), vehicle: water) was 135 % of control, the T/C (dose: 12.0 mg/kg/injection, schedule: Q01DX009 (ip), vehicle: saline) was 133 % of control and the T/C (dose: 16.0 mg/kg/injection, schedule: Q04DX003 (ip), vehicle: saline) was 131 % of control [5 of 6 alive]. For the same compound, the T/C (dose: 16.0 mg/kg/injection, schedule: Q04DX003 (ip), vehicle: water) was 137 and 144 % of control, the T/C [1] was 136 % of control and the T/C [12] was 149 % of control. The T/C (dose: 32.0 mg/kg/injection, schedule: Q04DX003 (ip), vehicle: saline) was 132 % of control, the T/C (dose: 32.0 mg/kg/injection, schedule: Q04DX003 (ip), vehicle: water) was 139 % of control and the survivor count (dose: 50.0 mg/kg/injection, schedule: Q01DX009 (ip), vehicle: saline) was 7 of 10. The T/C (dose: 64.0 mg/kg/injection, schedule: Q04DX003 (ip), vehicle: saline) was 135 % of control, the T/C (dose: 64.0 mg/kg/injection, schedule: Q04DX003 (ip), vehicle: water) was 133 % of control and the survivor count [3] was 0 of 6.
With `CCCc1cc(C(C)=O)c[n+](C2OC(COC(C)=O)C(OC(C)=O)C(OC(C)=O)C2OC(C)=O)c1` (centres undefined) the survivor count (dose: 200.0 mg/kg/injection, schedule: Q01DX005 (ip), vehicle: water) was 3 of 6.
